Drawing on PMC7819943, “Rice protein-binding microarrays: a tool to detect cis-acting elements near promoter regions in rice”, this text covers binding signal for 42 sequences.

Chains of the proteins cited; added tags and fusions are not shown.
UniProt Q0JBA9, entry or part of it: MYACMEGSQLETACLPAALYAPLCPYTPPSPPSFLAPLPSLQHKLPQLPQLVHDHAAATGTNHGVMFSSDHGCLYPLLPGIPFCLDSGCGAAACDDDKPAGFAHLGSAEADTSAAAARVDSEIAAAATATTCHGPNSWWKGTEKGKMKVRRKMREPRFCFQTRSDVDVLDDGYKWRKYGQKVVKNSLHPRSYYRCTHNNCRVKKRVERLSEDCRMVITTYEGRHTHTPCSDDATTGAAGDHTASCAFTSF

The list shows a part of the results.

The target in this experiment is OsWRKY34 (Oryza sativa, UniProt Q0JBA9 1-250). Nature of the experiment: protein-binding microarray (RPBM); PBS, 2% BSA, 51.3 ng/ul salmon testes DNA, 50 uM zinc acetate, 200 nM TF, 25 C, 1 h; high values mean tight binding. The conditions noted are these: protein: recombinant; tags: N-terminal polyhistidine and DsRed monomer fusion (pET32a); label: CyDye5-dUTP incorporated in the synthesized complementary strand; 3' TTTTT single-stranded linker to array surface; dsDNA, one strand shown. The procedure, abridged:
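The binding signal is fluorescence intensity per feature, in arbitrary units, read on an Axon 4000B scanner. Polyhistidine- and DsRed-tagged transcription factors (N-terminal fusions) from E. coli BL21-CodonPlus were purified on Ni–NTA and applied at 200 nM for 1 h at 25 °C to a double-stranded, BSA-blocked custom Agilent array in buffer with 50 µM zinc acetate.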
For the sequence “GCTGAATTCTCACTGCTGTTCTTCACCTCCTCATACCTCGCGGAGTCACCTAGTGCAG”, the binding signal was 8980 fluorescence intensity (a.u.). For the sequence “CCTCTACGCGCGGCCAACGCCGCCGCCGCCGCCGCCGCTCCGGAGTCACCTAGTGCAG”, the binding signal was 8370 fluorescence intensity (a.u.).

As for “ATGTTTGACCATTCGTCTTATTCAAAAAATTTACGTAATTCGGAGTCACCTAGTGCAG”, the binding signal was 8060 fluorescence intensity (a.u.). The same measure for “CAGATCTGTAAAGTTAGCGTTCTCTATCTCTCTCTCTTTTCGGAGTCACCTAGTGCAG”: 11800 fluorescence intensity (a.u.).

For the sequence “TGTTCTCTTTTTTAATACTTCCTCTGTTCCATATTATATCCGGAGTCACCTAGTGCAG”, the binding signal is 9620 fluorescence intensity (a.u.). To “TTTTCCAACTTACCTCCTTCATTTTCCACGCGCACATTTTCGGAGTCACCTAGTGCAG” belongs 9420 fluorescence intensity (a.u.); to “TCGTTTACCACCTATCCAACGCAGGTCGCAATAAAAACCACGGAGTCACCTAGTGCAG”, 8300 fluorescence intensity (a.u.).

“GCTCTTCCTATCCTACTGCCAACTCCCGCGATGACCGCGCCGGAGTCACCTAGTGCAG”: the binding signal is 8890 fluorescence intensity (a.u.). To “ATTTGTTCCCACGACCTCTATTTTACTGAAATAACATGTTCGGAGTCACCTAGTGCAG” belongs 10000 fluorescence intensity (a.u.). To “TCCTGTGGCCTATCCGGTCTCCTTGGCCTCCGCGAGGTTGCGGAGTCACCTAGTGCAG” belongs 10400 fluorescence intensity (a.u.). Take “GTGACCCAACATTCAGATTCATCTTTTTTTTTCACCTTCTCGGAGTCACCTAGTGCAG”: the binding signal was 11300 fluorescence intensity (a.u.). Turning to “ATGTTAGCCTCTTACCTTGCACGCAACTTGTTTGTCTACACGGAGTCACCTAGTGCAG”, the binding signal was 10900 fluorescence intensity (a.u.). “TACCCTTTTTCTGGTCATTTTGCCTCTGTATCAGTGGGGACGGAGTCACCTAGTGCAG”: the binding signal is 11200 fluorescence intensity (a.u.). The same measure for “ATCGTATTACCGGAGTCAAAATGCACTTATTCCTCCTTCACGGAGTCACCTAGTGCAG”: 8920 fluorescence intensity (a.u.); for “GATGATGATGATTTTGGTAGGAGATATGGATCGTGTTGGTCGGAGTCACCTAGTGCAG”: 11300 fluorescence intensity (a.u.); for “ATCGTTAAGTCTGATCACCACTCCCTTTACAGCTCTTTACCGGAGTCACCTAGTGCAG”: 10800 fluorescence intensity (a.u.). The same measure for “ACTATGTTTTCCTTTTTTTATTCTGAATTTTAATTAGCTTCGGAGTCACCTAGTGCAG”: 8400 fluorescence intensity (a.u.); for “ATATTCACTTTTTACCGATGCATTCCACAAAAGATTCACTCGGAGTCACCTAGTGCAG”: 8590 fluorescence intensity (a.u.); for “CCCATCAAGAATATCTTCCTACACGCAATGCATCTTATGTCGGAGTCACCTAGTGCAG”: 9880 fluorescence intensity (a.u.).

As for “ACACTTTCTGTTCCAACTGTAAAAAGGCACACCACAAAAACGGAGTCACCTAGTGCAG”, the binding signal was 8810 fluorescence intensity (a.u.). To “CGGTATCCTCTAATTATTTTAGAATCTCATGTCCCAAATTCGGAGTCACCTAGTGCAG” belongs 8190 fluorescence intensity (a.u.); to “ACTTACCCTAGGCCCATCTCCTCCACAGCAAGCACTCTCACGGAGTCACCTAGTGCAG”, 10400 fluorescence intensity (a.u.). To “CACACACAAACCATTGCAACTGCACTACACTGCAGCACACCGGAGTCACCTAGTGCAG” belongs 9060 fluorescence intensity (a.u.); to “AATCTATGGTCCAAACTATTTCACTCCCTTTTTTCTCTCACGGAGTCACCTAGTGCAG”, 11000 fluorescence intensity (a.u.).

As to “CCACTAGATATGCGCGCCTTTGCAAACTTACCACCCAATCCGGAGTCACCTAGTGCAG”, the binding signal was 9200 fluorescence intensity (a.u.).

For the sequence “TCGTCTGTTGCCACCCATTTCTTACCCACATGATTTTCTTCGGAGTCACCTAGTGCAG”, the binding signal is 8560 fluorescence intensity (a.u.).

As for “ATCCCGGGCTGCCAAAGGAGCCCTTATATGATTCCCACGCCGGAGTCACCTAGTGCAG”, the binding signal is 8500 fluorescence intensity (a.u.). In the case of “GCATATGGGGATTCTGGGATTTTGGTTTACAGTCTACATTCGGAGTCACCTAGTGCAG”, the binding signal was 8100 fluorescence intensity (a.u.). The same measure for “TCTATGTGTGCATCTGTTGCAGCTCAAATTATTTTCATGTCGGAGTCACCTAGTGCAG”: 8480 fluorescence intensity (a.u.); for “TGATATTTCTAAGAAGTTGGGTTTGTTGATGTTATTTCTTCGGAGTCACCTAGTGCAG”: 8280 fluorescence intensity (a.u.); for “AATTCGTTTTGCGGGCGGGAGGAATTAACTCTCAGAACCACGGAGTCACCTAGTGCAG”: 9460 fluorescence intensity (a.u.). To “GGTCAGTCAGTCACTCACAGTATCCGATCCGATCTGGAGTCGGAGTCACCTAGTGCAG” belongs 11100 fluorescence intensity (a.u.).

Consider “CTCCGATACCGTCATCTCACCACACAAACGCAGGCACACACGGAGTCACCTAGTGCAG”, for which the binding signal is 9630 fluorescence intensity (a.u.). Take “AGTTATGTGATTATGTTGTTGTTGTTGTTCTTGGATGTGACGGAGTCACCTAGTGCAG”: the binding signal was 11200 fluorescence intensity (a.u.). As to “ACTCTCTTCACACTGCAAGCATCGATTAGTGGGACCATAACGGAGTCACCTAGTGCAG”, the binding signal is 9220 fluorescence intensity (a.u.). In the case of “GGCTTCCAAACCACTTCGGGTTTTGATATGTGATAACCTTCGGAGTCACCTAGTGCAG”, the binding signal is 8190 fluorescence intensity (a.u.).

Turning to “ATCTAACTGCATGCATGCATACAGGCCTCTTTAAGCATGGCGGAGTCACCTAGTGCAG”, the binding signal is 8320 fluorescence intensity (a.u.).

Take “GTTTTCATATCTGAGGTTTTCAATTTTGATTCCTACTCCGCGGAGTCACCTAGTGCAG”: the binding signal is 9400 fluorescence intensity (a.u.). To “TCTCGTCTCCGCCACCGTGCGCGCGTCCCCTATATTAGACCGGAGTCACCTAGTGCAG” belongs 10400 fluorescence intensity (a.u.); to “CACATTTGCCAGCACCGAGATCTCCAGAGCCAGATATTCCCGGAGTCACCTAGTGCAG”, 9680 fluorescence intensity (a.u.).

Regarding “TGTACGTGGTCGTTTCAGTCGTCATTGTGAAAATTTCGATCGGAGTCACCTAGTGCAG”, the binding signal was 8460 fluorescence intensity (a.u.). The same measure for “ATGCATGTTGTGTGAACCGTTGATGTTTCTGGATTCAACTCGGAGTCACCTAGTGCAG”: 9410 fluorescence intensity (a.u.).
